In this experiment the target is T1, DRB1 tagged with HA epitope (pDRB1:DRB1:HA) (Arabidopsis thaliana) (UniProt O04492).
T1 sequence: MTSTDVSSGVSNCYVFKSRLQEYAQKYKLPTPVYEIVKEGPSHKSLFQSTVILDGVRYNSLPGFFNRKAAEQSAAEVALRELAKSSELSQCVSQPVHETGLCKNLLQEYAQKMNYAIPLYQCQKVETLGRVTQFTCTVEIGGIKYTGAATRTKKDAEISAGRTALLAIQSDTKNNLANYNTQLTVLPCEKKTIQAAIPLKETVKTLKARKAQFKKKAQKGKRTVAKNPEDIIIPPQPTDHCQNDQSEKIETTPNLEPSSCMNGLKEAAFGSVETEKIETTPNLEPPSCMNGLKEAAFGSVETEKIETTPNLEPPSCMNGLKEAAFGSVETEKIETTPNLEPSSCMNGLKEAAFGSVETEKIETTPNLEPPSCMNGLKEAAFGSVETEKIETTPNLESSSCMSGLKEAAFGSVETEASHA
The experiment in a line: affinity purification with mass spectrometry.

These are yes or no findings as the source states them, for the method shown. Binding seen in cells or lysates may run through a third protein. Here binding means that the protein was enriched with, or labelled near, the bait; the list need not be complete. Sequences can lack the tags named with a protein.

Take KETCH1 (from UniProt F4K2M5): the binding entry is recorded as “binds”.

B1: CDC5 (protein, UniProt P92948 1-844)
chain: MRIMIKGGVWKNTEDEILKAAVMKYGKNQWARISSLLVRKSAKQCKARWYEWLDPSIKKTEWTREEDEKLLHLAKLLPTQWRTIAPIVGRTPSQCLERYEKLLDAACTKDENYDAADDPRKLRPGEIDPNPEAKPARPDPVDMDEDEKEMLSEARARLANTRGKKAKRKAREKQLEEARRLASLQKRRELKAAGIDGRHRKRKRKGIDYNAEIPFEKRAPAGFYDTADEDRPADQVKFPTTIEELEGKRRADVEAHLRKQDVARNKIAQRQDAPAAILQANKLNDPEVVRKRSKLMLPPPQISDHELEEIAKMGYASDLLAENEELTEGSAATRALLANYSQTPRQGMTPMRTPQRTPAGKGDAIMMEAENLARLRDSQTPLLGGENPELHPSDFTGVTPRKKEIQTPNPMLTPSMTPGGAGLTPRIGLTPSRDGSSFSMTPKGTPFRDELHINEDMDMHESAKLERQRREEARRSLRSGLTGLPQPKNEYQIVAQPPPEESEEPEEKIEEDMSDRIAREKAEEEARQQALLKKRSKVLQRDLPRPPAASLAVIRNSLLSADGDKSSVVPPTPIEVADKMVREELLQLLEHDNAKYPLDDKAEKKKGAKNRTNRSASQVLAIDDFDENELQEADKMIKEEGKFLCVSMGHENKTLDDFVEAHNTCVNDLMYFPTRSAYELSSVAGNADKVAAFQEEMENVRKKMEEDEKKAEHMKAKYKTYTKGHERRAETVWTQIEATLKQAEIGGTEVECFKALKRQEEMAASFRKKNLQEEVIKQKETESKLQTRYGNMLAMVEKAEEIMVGFRAQALKKQEDVEDSHKLKEAKLATGEEEDIAIAMEASA
B1: the binding entry is “binds”.

Source of the values: doi:10.1101/2019.12.30.890665.
